Some of the results follow.

Protein sequences, listed by entry. Tags and fused reporters are not part of them. Lines headed by an entry give the natural chain unless they say otherwise; changes in a name come on top.
UniProt P28331, whole entry, looked up: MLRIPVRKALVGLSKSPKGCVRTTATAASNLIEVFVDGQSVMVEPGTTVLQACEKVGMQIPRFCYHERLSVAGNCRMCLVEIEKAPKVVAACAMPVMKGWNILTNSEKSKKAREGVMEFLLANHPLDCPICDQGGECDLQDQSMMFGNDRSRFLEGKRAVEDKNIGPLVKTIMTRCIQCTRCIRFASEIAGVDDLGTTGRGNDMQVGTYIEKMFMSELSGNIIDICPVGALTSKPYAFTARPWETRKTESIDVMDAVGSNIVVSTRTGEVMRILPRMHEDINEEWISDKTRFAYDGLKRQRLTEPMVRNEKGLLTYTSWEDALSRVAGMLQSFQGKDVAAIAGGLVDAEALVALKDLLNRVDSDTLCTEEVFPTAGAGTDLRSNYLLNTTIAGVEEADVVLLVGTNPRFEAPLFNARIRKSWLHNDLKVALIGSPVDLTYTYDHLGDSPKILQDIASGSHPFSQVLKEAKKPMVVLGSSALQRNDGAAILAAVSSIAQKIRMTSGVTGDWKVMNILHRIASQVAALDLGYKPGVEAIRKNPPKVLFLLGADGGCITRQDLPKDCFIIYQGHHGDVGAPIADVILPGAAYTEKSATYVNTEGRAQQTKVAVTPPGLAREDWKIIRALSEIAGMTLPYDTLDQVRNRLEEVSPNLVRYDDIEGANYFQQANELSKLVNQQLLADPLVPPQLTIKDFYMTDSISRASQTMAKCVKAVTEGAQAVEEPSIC
UniProt Q6KC79: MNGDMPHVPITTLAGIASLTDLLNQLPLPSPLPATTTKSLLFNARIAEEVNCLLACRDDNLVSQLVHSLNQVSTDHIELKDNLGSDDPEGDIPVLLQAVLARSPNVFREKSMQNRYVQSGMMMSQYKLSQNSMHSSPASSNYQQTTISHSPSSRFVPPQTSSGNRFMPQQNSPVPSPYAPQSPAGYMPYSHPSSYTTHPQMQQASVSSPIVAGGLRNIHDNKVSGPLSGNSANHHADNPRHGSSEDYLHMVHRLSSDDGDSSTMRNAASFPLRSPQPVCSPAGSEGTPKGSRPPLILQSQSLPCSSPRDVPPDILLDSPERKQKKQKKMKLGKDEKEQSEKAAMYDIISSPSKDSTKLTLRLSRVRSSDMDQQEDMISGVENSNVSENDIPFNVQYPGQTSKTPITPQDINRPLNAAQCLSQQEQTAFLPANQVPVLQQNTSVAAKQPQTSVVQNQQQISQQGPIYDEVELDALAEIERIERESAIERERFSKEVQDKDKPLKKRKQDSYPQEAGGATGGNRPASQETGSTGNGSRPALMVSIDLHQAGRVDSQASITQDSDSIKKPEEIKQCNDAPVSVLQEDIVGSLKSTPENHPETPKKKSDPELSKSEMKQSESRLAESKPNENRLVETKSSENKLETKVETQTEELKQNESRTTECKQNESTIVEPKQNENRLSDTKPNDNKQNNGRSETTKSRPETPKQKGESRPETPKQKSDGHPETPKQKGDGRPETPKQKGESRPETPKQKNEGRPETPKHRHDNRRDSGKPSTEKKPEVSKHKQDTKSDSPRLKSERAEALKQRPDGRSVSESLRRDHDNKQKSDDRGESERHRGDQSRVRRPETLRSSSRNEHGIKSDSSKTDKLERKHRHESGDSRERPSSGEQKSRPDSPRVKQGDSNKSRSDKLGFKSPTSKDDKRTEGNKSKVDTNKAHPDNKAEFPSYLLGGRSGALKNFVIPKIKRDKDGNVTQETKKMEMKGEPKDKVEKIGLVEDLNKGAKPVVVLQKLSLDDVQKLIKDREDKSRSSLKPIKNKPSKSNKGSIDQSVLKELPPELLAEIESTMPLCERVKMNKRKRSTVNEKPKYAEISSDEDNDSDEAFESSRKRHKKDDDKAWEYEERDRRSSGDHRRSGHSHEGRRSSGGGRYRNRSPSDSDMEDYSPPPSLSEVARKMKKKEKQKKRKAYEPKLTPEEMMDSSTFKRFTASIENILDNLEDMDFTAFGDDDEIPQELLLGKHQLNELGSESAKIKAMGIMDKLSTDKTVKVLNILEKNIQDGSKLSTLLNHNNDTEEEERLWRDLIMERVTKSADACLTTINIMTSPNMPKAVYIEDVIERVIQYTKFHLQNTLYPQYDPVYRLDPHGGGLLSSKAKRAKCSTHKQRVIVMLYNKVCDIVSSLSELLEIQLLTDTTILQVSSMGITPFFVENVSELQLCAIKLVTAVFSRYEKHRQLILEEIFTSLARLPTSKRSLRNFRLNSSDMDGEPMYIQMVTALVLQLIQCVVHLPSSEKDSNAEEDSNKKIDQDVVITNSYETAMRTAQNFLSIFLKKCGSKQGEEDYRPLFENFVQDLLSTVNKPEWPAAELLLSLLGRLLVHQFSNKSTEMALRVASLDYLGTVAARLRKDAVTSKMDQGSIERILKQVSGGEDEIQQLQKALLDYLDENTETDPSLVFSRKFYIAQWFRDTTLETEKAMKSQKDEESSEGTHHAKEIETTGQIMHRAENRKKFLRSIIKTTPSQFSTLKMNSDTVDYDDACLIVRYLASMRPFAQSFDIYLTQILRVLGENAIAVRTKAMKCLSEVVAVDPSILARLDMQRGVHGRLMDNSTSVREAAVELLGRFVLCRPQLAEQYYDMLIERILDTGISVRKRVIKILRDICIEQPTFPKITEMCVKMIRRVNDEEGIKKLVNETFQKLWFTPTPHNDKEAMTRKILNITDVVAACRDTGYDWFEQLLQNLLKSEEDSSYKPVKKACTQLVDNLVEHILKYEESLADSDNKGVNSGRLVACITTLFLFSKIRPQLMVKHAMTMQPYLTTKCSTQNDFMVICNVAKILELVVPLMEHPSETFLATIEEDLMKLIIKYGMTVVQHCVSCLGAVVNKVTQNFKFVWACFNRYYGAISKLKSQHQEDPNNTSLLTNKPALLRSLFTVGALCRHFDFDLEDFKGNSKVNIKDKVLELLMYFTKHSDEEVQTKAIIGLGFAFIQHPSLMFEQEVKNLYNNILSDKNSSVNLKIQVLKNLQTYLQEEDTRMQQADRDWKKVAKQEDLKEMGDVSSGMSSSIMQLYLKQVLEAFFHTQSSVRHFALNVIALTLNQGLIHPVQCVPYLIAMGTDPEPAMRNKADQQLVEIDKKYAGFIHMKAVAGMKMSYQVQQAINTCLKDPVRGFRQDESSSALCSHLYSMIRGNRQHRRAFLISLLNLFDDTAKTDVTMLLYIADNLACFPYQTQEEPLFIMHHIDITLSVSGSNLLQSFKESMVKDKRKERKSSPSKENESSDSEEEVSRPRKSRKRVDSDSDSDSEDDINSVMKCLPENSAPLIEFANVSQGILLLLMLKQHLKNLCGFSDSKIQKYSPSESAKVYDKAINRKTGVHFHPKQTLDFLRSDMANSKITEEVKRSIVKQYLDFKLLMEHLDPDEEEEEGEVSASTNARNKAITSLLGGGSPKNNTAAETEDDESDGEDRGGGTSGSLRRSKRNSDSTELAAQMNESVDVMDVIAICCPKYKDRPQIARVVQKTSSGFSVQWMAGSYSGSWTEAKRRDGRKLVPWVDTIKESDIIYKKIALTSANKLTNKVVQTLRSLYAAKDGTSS
UniProt Q96IV0: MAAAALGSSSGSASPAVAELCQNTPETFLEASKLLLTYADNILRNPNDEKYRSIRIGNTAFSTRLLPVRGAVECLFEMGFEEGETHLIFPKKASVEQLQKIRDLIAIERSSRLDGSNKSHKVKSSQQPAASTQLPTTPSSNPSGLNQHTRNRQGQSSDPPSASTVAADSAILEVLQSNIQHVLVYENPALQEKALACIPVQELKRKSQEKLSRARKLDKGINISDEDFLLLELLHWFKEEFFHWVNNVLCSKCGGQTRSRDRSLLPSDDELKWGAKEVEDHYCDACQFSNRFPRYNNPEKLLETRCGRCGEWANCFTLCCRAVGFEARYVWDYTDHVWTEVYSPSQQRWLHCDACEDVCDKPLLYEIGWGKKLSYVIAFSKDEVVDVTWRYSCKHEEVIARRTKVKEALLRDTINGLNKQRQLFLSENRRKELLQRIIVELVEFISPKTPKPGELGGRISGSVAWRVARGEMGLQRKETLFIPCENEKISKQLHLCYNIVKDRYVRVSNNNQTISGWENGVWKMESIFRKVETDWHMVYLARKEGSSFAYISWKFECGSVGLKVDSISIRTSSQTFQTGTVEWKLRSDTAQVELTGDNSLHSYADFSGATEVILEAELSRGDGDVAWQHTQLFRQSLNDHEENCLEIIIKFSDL
UniProt Q86X76: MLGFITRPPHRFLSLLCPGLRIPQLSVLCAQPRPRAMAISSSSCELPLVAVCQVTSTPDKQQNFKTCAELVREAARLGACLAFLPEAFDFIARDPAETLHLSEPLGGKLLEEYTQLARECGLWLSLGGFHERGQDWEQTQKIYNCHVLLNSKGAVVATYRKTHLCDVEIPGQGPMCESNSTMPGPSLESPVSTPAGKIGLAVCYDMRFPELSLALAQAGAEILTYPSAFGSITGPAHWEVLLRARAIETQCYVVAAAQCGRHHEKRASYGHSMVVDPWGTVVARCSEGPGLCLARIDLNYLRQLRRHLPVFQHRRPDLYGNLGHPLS
UniProt Q8TD19: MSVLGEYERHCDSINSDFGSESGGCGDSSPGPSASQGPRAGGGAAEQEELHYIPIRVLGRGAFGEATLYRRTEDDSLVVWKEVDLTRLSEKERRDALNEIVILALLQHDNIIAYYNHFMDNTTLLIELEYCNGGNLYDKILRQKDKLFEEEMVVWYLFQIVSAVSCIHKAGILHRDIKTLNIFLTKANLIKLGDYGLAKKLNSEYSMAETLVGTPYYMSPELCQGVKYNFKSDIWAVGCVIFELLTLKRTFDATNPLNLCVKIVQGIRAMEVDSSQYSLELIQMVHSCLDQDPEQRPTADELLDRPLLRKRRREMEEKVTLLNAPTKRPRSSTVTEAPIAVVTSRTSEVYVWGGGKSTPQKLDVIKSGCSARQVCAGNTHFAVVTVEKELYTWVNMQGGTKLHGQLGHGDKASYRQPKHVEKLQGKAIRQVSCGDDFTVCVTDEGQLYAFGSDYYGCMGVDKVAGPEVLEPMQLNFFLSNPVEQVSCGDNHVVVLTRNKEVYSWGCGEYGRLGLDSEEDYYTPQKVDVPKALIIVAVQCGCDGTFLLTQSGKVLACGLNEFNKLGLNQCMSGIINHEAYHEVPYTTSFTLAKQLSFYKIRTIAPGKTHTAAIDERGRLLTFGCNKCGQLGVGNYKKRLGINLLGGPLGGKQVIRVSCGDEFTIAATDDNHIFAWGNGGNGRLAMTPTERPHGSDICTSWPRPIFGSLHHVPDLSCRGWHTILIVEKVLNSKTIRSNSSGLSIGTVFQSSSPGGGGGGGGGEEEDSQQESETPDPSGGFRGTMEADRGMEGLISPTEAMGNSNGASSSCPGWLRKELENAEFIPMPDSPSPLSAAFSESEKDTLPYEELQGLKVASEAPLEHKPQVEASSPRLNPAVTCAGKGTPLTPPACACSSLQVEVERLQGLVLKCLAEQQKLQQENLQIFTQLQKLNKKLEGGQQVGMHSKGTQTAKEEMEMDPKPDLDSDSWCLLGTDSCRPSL
UniProt Q8IXH7, whole entry, looked up: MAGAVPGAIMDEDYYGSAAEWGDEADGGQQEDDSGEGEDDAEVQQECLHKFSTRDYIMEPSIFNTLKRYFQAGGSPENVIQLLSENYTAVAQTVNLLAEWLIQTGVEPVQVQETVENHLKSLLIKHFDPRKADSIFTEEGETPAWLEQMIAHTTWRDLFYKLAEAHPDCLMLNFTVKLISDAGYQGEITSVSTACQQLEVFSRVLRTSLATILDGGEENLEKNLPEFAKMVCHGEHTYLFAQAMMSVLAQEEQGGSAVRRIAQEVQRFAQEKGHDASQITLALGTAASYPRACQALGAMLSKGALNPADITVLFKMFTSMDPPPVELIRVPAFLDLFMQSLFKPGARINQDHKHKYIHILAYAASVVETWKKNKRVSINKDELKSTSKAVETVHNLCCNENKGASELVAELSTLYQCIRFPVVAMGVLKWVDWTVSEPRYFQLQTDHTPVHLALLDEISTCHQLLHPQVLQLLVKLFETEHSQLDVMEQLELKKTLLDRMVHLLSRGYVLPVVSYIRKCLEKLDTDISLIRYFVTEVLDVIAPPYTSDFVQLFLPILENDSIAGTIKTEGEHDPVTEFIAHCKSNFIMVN
UniProt P49821, whole entry, looked up: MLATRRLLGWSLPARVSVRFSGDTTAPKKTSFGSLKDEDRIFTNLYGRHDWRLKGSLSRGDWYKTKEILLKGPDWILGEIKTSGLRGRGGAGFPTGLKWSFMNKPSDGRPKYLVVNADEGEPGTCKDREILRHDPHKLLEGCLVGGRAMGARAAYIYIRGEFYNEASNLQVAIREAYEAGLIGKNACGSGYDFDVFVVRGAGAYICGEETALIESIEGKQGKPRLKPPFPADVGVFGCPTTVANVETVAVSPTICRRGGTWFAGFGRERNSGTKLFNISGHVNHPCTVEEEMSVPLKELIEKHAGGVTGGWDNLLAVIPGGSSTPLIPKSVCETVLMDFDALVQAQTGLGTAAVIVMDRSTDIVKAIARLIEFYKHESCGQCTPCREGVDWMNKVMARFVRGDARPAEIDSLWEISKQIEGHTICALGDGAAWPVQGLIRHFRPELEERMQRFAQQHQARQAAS

37 targets from the supplement of paper PMC12067093, “Discovery and optimisation of a covalent ligand for TRIM25 and its application to targeted protein ubiquitination” (Chemical Science, 2025) can be followed below.

Compound in this experiment: Cc1cc(ccc1-c1ccccc1)C(=O)N1CCCN(CC1)C(=O)CCl [compound 10]
The experiment can be described thus: probe-labelled cysteine peptide fold change vs DMSO (competition) (log2 fold change); higher = less target engagement (more negative = stronger competition). The note with it: THP-1, incubation time: 4 h.
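Note: competitive profiling in live THP-1 cells: cysteine peptides tagged with an iodoacetamide desthiobiotin (IA-DTB) probe, intensity after compound treatment relative to DMSO-treated cells.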

As to “NDUFS1_P28331_78_MCLVEIEK (UniProt P28331)”, the “probe-labelled cysteine peptide fold change” value is, setting by setting: (10 µM) -0.319; (50 µM) -0.624.

With “NIPBL_Q6KC79_1940_ILNITDVVAACR (UniProt Q6KC79)”, the “probe-labelled cysteine peptide fold change” value (10 µM) came out at 0.0741 and the “probe-labelled cysteine peptide fold change” value (50 µM) was found to be 0.188.

For the target “NIPSNAP2_O75323_85_LQFHNVKPECLEAYNK (UniProt O75323)”, the “probe-labelled cysteine peptide fold change” value is -0.204 (10 µM) and -0.0373 (50 µM).

For “NEURL4_Q96JN8_527_LLFHPNCGQK (UniProt Q96JN8)”, the “probe-labelled cysteine peptide fold change” value was -0.332 (10 µM) and -0.0952 (50 µM).

Consider “NGLY1_Q96IV0_74_GAVECLFEMGFEEGETHLIFPK (UniProt Q96IV0)”, for which the “probe-labelled cysteine peptide fold change” value is 0.166 (10 µM) and 0.0369 (50 µM).

In the case of “NFATC3_Q12968_537_VLEIPLLPENNMSASIDCAGILK (UniProt Q12968)”, the “probe-labelled cysteine peptide fold change” value is -0.0447 (10 µM) and -0.0788 (50 µM).

Turning to “NDUFS1_P28331_64_FCYHER (UniProt P28331)”, the “probe-labelled cysteine peptide fold change” value by setting is: (10 µM) -0.0829; (50 µM) -0.202.

Turning to “NFATC2_Q13469_569_IVSLQTASNPIECSQR (UniProt Q13469)”, the “probe-labelled cysteine peptide fold change” value was -0.0383 (10 µM) and -0.18 (50 µM).

In the case of “NIT1_Q86X76_285+292_CSEGPGLCLAR (UniProt Q86X76)”, the “probe-labelled cysteine peptide fold change” value (10 µM) came out at 0.0591 and the “probe-labelled cysteine peptide fold change” value (50 µM) was -0.166.

Take “NFX1_Q12986_778_VHECDHPVYHSCHSEEK (UniProt Q12986)”: the “probe-labelled cysteine peptide fold change” value (10 µM) worked out at 0.0815 and the “probe-labelled cysteine peptide fold change” value (50 µM) was -0.146.

In the case of “NIT1_Q86X76_292_CSEGPGLCLAR (UniProt Q86X76)”, the “probe-labelled cysteine peptide fold change” value (10 µM) is 0.217 and the “probe-labelled cysteine peptide fold change” value (50 µM) is -0.0225.

As to “NIPBL_Q6KC79_304_GSRPPLILQSQSLPCSSPR (UniProt Q6KC79)”, the “probe-labelled cysteine peptide fold change” value is -0.0738 (10 µM) and -0.0903 (50 µM).

For the target “NELFB_Q8WX92_141_ACAVEVK (UniProt Q8WX92)”, the “probe-labelled cysteine peptide fold change” value reads like this: (10 µM) -0.158; (50 µM) -0.000625.

Turning to “NCOA4_Q13772_244_ACNFFNNVGGNLK (UniProt Q13772)”, the “probe-labelled cysteine peptide fold change” value reads like this: (10 µM) 0.0261; (50 µM) -0.294.

In the case of “NIPBL_Q6KC79_2374_MSYQVQQAINTCLKDPVR (UniProt Q6KC79)”, the “probe-labelled cysteine peptide fold change” value by setting is: (10 µM) -0.126; (50 µM) -0.561.

Regarding “NDRG1_Q92597_394_SMEVSC (UniProt Q92597)”, the “probe-labelled cysteine peptide fold change” value is -0.504 (10 µM) and -0.206 (50 µM).

For “NEMF_O60524_575_YLTPGDIYVHADLHGATSCVIK (UniProt O60524)”, the “probe-labelled cysteine peptide fold change” value stood at 0.142 (10 µM) and 0.325 (50 µM).

Take “NFATC1_O95644_383_GGFCDQYLAVPQHPYQWAK (UniProt O95644)”: the “probe-labelled cysteine peptide fold change” value by setting is: (10 µM) -0.223; (50 µM) -0.405.

Take “NIT1_Q86X76_145_IYNCHVLLNSK (UniProt Q86X76)”: the “probe-labelled cysteine peptide fold change” value turned out to be 0.128 (10 µM) and 0.0697 (50 µM).

As to “NDUFA8_P51970_66_CALDFFR (UniProt P51970)”, the “probe-labelled cysteine peptide fold change” value reads like this: (10 µM) -0.175; (50 µM) 0.0473.

As for “NEK9_Q8TD19_375_QVCAGNTHFAVVTVEK (UniProt Q8TD19)”, the “probe-labelled cysteine peptide fold change” value is, setting by setting: (10 µM) 0.0417; (50 µM) -0.161.

Consider “NFRKB_Q6P4R8_17_MDSLDHMLTDPLELGPCGDGHGTR (UniProt Q6P4R8)”, for which the “probe-labelled cysteine peptide fold change” value (10 µM) is -0.564 and the “probe-labelled cysteine peptide fold change” value (50 µM) is -0.686.

For the target “NCOR2_Q9Y618_1289_GHVLSYEGGMSVTQCSK (UniProt Q9Y618)”, the “probe-labelled cysteine peptide fold change” value reads like this: (10 µM) -0.155; (50 µM) -0.339.

As to “NDRG2_Q9UN36_274_CPVMLVVGDQAPHEDAVVECNSK (UniProt Q9UN36)”, the “probe-labelled cysteine peptide fold change” value was -0.179 (10 µM) and -0.0152 (50 µM).

In the case of “NEK9_Q8TD19_556_VLACGLNEFNK (UniProt Q8TD19)”, the “probe-labelled cysteine peptide fold change” value (10 µM) was 0.217 and the “probe-labelled cysteine peptide fold change” value (50 µM) is -0.0386.

With “NIN_Q8N4C6_1261_LLYEDVSRENDCLQEELR (UniProt Q8N4C6)”, the “probe-labelled cysteine peptide fold change” value (10 µM) is -0.041 and the “probe-labelled cysteine peptide fold change” value (50 µM) is -0.0558.

In the case of “NELFCD_Q8IXH7_397_AVETVHNLCCNENK (UniProt Q8IXH7)”, the “probe-labelled cysteine peptide fold change” value was 0.0405 (10 µM) and -0.133 (50 µM).

Regarding “NCOA5_Q9HCD5_200_RFDAERPVDCSVIVVNK (UniProt Q9HCD5)”, the “probe-labelled cysteine peptide fold change” value is, setting by setting: (10 µM) 0.081; (50 µM) 0.00246.

Turning to “NDUFV1_P49821_385_HESCGQCTPCR (UniProt P49821)”, the “probe-labelled cysteine peptide fold change” value by setting is: (10 µM) -0.00154; (50 µM) 0.863.

As to “NELFCD_Q8IXH7_417_GASELVAELSTLYQCIR (UniProt Q8IXH7)”, the “probe-labelled cysteine peptide fold change” value (10 µM) worked out at 0.211 and the “probe-labelled cysteine peptide fold change” value (50 µM) is 0.297.

“NGLY1_Q96IV0_283+286_EVEDHYCDACQFSNR (UniProt Q96IV0)”: the “probe-labelled cysteine peptide fold change” value (10 µM) came to 0.0817 and the “probe-labelled cysteine peptide fold change” value (50 µM) is -0.301.

Turning to “NEK7_Q8TDX7_146_YFVQLCSALEHMHSR (UniProt Q8TDX7)”, the “probe-labelled cysteine peptide fold change” value reads like this: (10 µM) 0.0437; (50 µM) 0.15.

As for “NDUFS1_P28331_554_VLFLLGADGGCITR (UniProt P28331)”, the “probe-labelled cysteine peptide fold change” value reads like this: (10 µM) 0.0579; (50 µM) 0.123.

In the case of “NCOA7_Q8NI08_55_CNIAVEEEYMTDEK (UniProt Q8NI08)”, the “probe-labelled cysteine peptide fold change” value runs as follows: (10 µM) -0.00528; (50 µM) -0.387.

In the case of “NDUFV1_P49821_206_GAGAYICGEETALIESIEGK (UniProt P49821)”, the “probe-labelled cysteine peptide fold change” value reads like this: (10 µM) -0.0696; (50 µM) -0.0757.

Turning to “NECAP1_Q8NC96_12_ATELEYESVLCVKPDVSVYR (UniProt Q8NC96)”, the “probe-labelled cysteine peptide fold change” value by setting is: (10 µM) 0.0951; (50 µM) 0.346.

Consider “NELFE_P18615_297_NCAFVTYEK (UniProt P18615)”, for which the “probe-labelled cysteine peptide fold change” value was 0.0725 (10 µM) and -0.0683 (50 µM).
